Results on 42 sequences are retold here after paper PMC7819943, “Rice protein-binding microarrays: a tool to detect cis-acting elements near promoter regions in rice”.

The other results are listed elsewhere or left out.

The test concerns the target T1, OsSMF1 (Oryza sativa, UniProt Q6ZLB0 1-436).
T1 sequence: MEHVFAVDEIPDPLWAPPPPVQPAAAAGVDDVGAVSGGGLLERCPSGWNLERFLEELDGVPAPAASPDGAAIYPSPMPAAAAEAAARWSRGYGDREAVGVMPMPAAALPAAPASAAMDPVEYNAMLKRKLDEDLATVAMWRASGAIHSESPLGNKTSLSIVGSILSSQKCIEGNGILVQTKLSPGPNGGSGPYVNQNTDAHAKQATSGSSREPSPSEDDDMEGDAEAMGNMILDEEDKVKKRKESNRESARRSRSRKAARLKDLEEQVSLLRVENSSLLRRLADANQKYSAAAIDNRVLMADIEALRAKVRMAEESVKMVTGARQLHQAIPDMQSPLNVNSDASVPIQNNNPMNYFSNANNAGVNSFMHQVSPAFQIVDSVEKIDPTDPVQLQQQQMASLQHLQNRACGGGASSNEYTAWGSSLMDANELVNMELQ
Briefly: protein-binding microarray (RPBM); PBS, 2% BSA, 51.3 ng/ul salmon testes DNA, 50 uM zinc acetate, 200 nM TF, 25 C, 1 h; high values mean tight binding. The following applies: protein: recombinant; tags: N-terminal polyhistidine and DsRed monomer fusion (pET32a); chain copies: 2; label: CyDye5-dUTP incorporated in the synthesized complementary strand; 3' TTTTT single-stranded linker to array surface; dsDNA, one strand shown. The procedure, abridged: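 The binding signal is fluorescence intensity per feature, in arbitrary units, read on an Axon 4000B scanner. Polyhistidine- and DsRed-tagged transcription factors (N-terminal fusions) from E. coli BL21-CodonPlus were purified on Ni–NTA and applied at 200 nM for 1 h at 25 °C to a double-stranded, BSA-blocked custom Agilent array in buffer with 50 µM zinc acetate.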
As to “GTCGCTAACTAAGGTGTCGGGAGAGAGAGATTAGTCAGATCGGAGTCACCTAGTGCAG”, the binding signal is 5040 fluorescence intensity (a.u.).

Turning to “CTGTCTTACTACAAGAAATGGCACGTAGGAGTAGGCAGATCGGAGTCACCTAGTGCAG”, the binding signal is 4330 fluorescence intensity (a.u.).

With “ATCGAATTGTCACGTAAGCGCCACGTCAATGCTACGTCAGCGGAGTCACCTAGTGCAG”, the binding signal was 26100 fluorescence intensity (a.u.).

In the case of “AGTGCACAGTTGATAACAAGAGGAGACGTAGTGCTGTGATCGGAGTCACCTAGTGCAG”, the binding signal was 3700 fluorescence intensity (a.u.).

As to “TAATTATAGAACAACCATAATGTAAGGGGAAAATATATGACGGAGTCACCTAGTGCAG”, the binding signal was 11700 fluorescence intensity (a.u.).

As to “GGGGAGGGAGAGGCCACGTCGTCAGCCAGCCAGCCATTTCCGGAGTCACCTAGTGCAG”, the binding signal was 34800 fluorescence intensity (a.u.).

Turning to “CTCTAAATTTGTGCAGATGTGTCACCTAGATCCCTGAACTCGGAGTCACCTAGTGCAG”, the binding signal was 4340 fluorescence intensity (a.u.).

As for “AACTCCAGTCAAAGCGTCCGTGTCATCGCTATCGTCCATGCGGAGTCACCTAGTGCAG”, the binding signal is 7880 fluorescence intensity (a.u.).

For “GAGGTGGTGTCGGGGAGGTTGGGAGGTGCAGGATGCATGCCGGAGTCACCTAGTGCAG”, the binding signal was 3470 fluorescence intensity (a.u.).

Take “GGGAGAGGCCTCGCGTCGCGTCTCCCACGTATCGTGGTCCCGGAGTCACCTAGTGCAG”: the binding signal was 3890 fluorescence intensity (a.u.).

Consider “ATGACGATAGAGAAACGCACGTCACCGCAACAACCGCCAACGGAGTCACCTAGTGCAG”, for which the binding signal is 4270 fluorescence intensity (a.u.).

Consider “CTGCGCCGCCGTCCCGCCGCCTTCCCGCCACGCGAGCCGTCGGAGTCACCTAGTGCAG”, for which the binding signal is 5670 fluorescence intensity (a.u.).

With “CAGTATCCTATTCATTCTTAAGTTCTTAATGATACCCGAGCGGAGTCACCTAGTGCAG”, the binding signal was 3510 fluorescence intensity (a.u.).

As to “AGACAATGCCCTTAAGAGAAATATAGGGGTTGTTTGGTTGCGGAGTCACCTAGTGCAG”, the binding signal is 4110 fluorescence intensity (a.u.).

For “TAAATTTCACAAAACTACATGTTTTATAGTTCAAGTTACACGGAGTCACCTAGTGCAG”, the binding signal was 32000 fluorescence intensity (a.u.).

For “CCGCCCGTTGCTAGCTGACACCTGCAAGAGTGCCAGTGAGCGGAGTCACCTAGTGCAG”, the binding signal was 3400 fluorescence intensity (a.u.).

With “AACAAAGCCAGCCACGTAATGGCGTGAGCCGGAGTAGCCTCGGAGTCACCTAGTGCAG”, the binding signal was 5000 fluorescence intensity (a.u.).

Consider “AAATAGTTGCCGGCTCACACCCTCTGTCCTCTTCAGCTCACGGAGTCACCTAGTGCAG”, for which the binding signal was 4440 fluorescence intensity (a.u.).

“GGGGCCCAACCCAGAAATAAGCGAGGCGGACCTGGGCTATCGGAGTCACCTAGTGCAG”: the binding signal is 25100 fluorescence intensity (a.u.).

Turning to “GCAGAATTCCCCAGCGTGCCCGTCATCTGCATACGCCTCCCGGAGTCACCTAGTGCAG”, the binding signal is 3500 fluorescence intensity (a.u.).

Turning to “TGACATGTGGGCCATCCTTATGTGTGCCCCGCACGTCAGTCGGAGTCACCTAGTGCAG”, the binding signal is 4180 fluorescence intensity (a.u.).

“TTGACCCACCCCAGTAGCGTGTCGTGTCGTGTCCGCGTGGCGGAGTCACCTAGTGCAG”: the binding signal is 4340 fluorescence intensity (a.u.).

As for “AACATGAAAGCTCAAGAGCTCGTGCTGACGGCTGAGAATCCGGAGTCACCTAGTGCAG”, the binding signal was 3150 fluorescence intensity (a.u.).

In the case of “TATATAGGGTTAATTTACAAAGTAAGTTCTCTAAAACTATCGGAGTCACCTAGTGCAG”, the binding signal is 34500 fluorescence intensity (a.u.).

On to “CGCTCTACTCTTCCGCCGCCGCCGCCGTCAGCGTCAGCGACGGAGTCACCTAGTGCAG”, for which the binding signal is 5890 fluorescence intensity (a.u.).

In the case of “CCATTATTGGACGCATTCCGTCAGCATCAACTGCCTCATCCGGAGTCACCTAGTGCAG”, the binding signal was 4980 fluorescence intensity (a.u.).

As for “GGAAATCATCCATGTTTAGCATTTTATCGTGTTGAGTCAGCGGAGTCACCTAGTGCAG”, the binding signal was 5940 fluorescence intensity (a.u.).

For the sequence “ATCATACCAGCAAAGTTGGCAGCAAAATGCCCCACCACCTCGGAGTCACCTAGTGCAG”, the binding signal was 3230 fluorescence intensity (a.u.).

Consider “CCTTCCTCCCTCCGCCAGCGCCACCTCCGCGCTACTGCCTCGGAGTCACCTAGTGCAG”, for which the binding signal is 6970 fluorescence intensity (a.u.).

Regarding “GCTCGCCCGTGACGCGTGCCGCGTGCGTGACTGCCAGCAGCGGAGTCACCTAGTGCAG”, the binding signal was 6040 fluorescence intensity (a.u.).

Consider “TTCTAAATATGACACATCCTCCGATTACAAGTCACAAATACGGAGTCACCTAGTGCAG”, for which the binding signal was 3450 fluorescence intensity (a.u.).

With “AAATCAACACGTGAATTCTGATCCGATATGGACACGCAAGCGGAGTCACCTAGTGCAG”, the binding signal is 3700 fluorescence intensity (a.u.).

Consider “GCCGCCTGCCTCCTCGGCCGCGCGCTCACCTGCCGCTACCCGGAGTCACCTAGTGCAG”, for which the binding signal is 5920 fluorescence intensity (a.u.).

Take “GAAAGGACCGGTTCAACGATCCACGTCAGCGGCGCAAGCCCGGAGTCACCTAGTGCAG”: the binding signal is 26100 fluorescence intensity (a.u.).

Take “AGTACTGCATGTGTCACATGTCTGTATCCGGTATGGTCTGCGGAGTCACCTAGTGCAG”: the binding signal is 4170 fluorescence intensity (a.u.).

Turning to “TCTCACTCTCACTCTCACTCTCACTCAGCTCGAGCCACAGCGGAGTCACCTAGTGCAG”, the binding signal was 18700 fluorescence intensity (a.u.).

In the case of “ACTCGCCCCAATCCAATCCACTCCACCGTACCACTCGCCGCGGAGTCACCTAGTGCAG”, the binding signal was 5110 fluorescence intensity (a.u.).

“GATAGCGCTTTCGTCTCTCCTGACTGTATCTGGAGACACCCGGAGTCACCTAGTGCAG”: the binding signal is 4920 fluorescence intensity (a.u.).

As for “GGCAGCGTGGCTATGGTCCCACCCGTCAGCCACCTCTCTCCGGAGTCACCTAGTGCAG”, the binding signal was 4140 fluorescence intensity (a.u.).

Regarding “GGGCGGCCGACGCCTGCTGCACGGCGGCGACCTCCTCGACCGGAGTCACCTAGTGCAG”, the binding signal is 5760 fluorescence intensity (a.u.).

“CTCCTTGCTTCCTTTTCTGACGAAACAAAACCAAGTATACCGGAGTCACCTAGTGCAG”: the binding signal was 4320 fluorescence intensity (a.u.).

Take “ATCTGGCCGTCCACGTTCCTCACTGTGCTGGCCCTTCCGCCGGAGTCACCTAGTGCAG”: the binding signal is 3470 fluorescence intensity (a.u.).
